According to patent US5049673A, “Fluorescent indicator dyes for calcium working at long wavelengths” (The Regents of the University of California, priority 1987, dated 1991):
At least one compound was matched to its structure with a doubt left.

Experiments:
[1] = Absorbance and fluorescence properties in the presence and absence of Ca2+; format: physicochemical
Method: FIG. 4. Excitation (A) and emission (B) spectra for fluo-3 at 22°±2° C. in buffers with free Ca^2+ values ranging from <1 nM to 58 microM. The titration was done starting with 3.5 ml of 100 mM KCl, 10 mM K-MOPS, 10 mM K2 H2 EGTA, 15 microM fluo-3, pH 7.03. The "O" Ca spectrum was recorded, then to reach n mM CaEGTA, (10-n) mM EGTA, n=1-10, aliquots of 3.5/(11-n) ml were iteratively discarded and replaced by equal volumes of 100 mM KCl, 10 mM K-MOPS, 10 mM K2 CaEGTA, 15 microM fluo-3, pH 7.0. After each iteration the pH (range 6.99 to 7.05) and spectra were recorded; each spectrum is labeled by the calculated free Ca^2+ in micromolar. The excitation and emission bandwidths were 1.9 nm and 4.6 nm respectively. All spectra have been normalized with respect to the peak of the 58 microM (n=10) curve. In A, emission was collected at 530 nm, and the excitation was corrected for lamp and monochromator characteristics using a rhodamine B quantum counter. In B, excitation was at 490 nm, and the emission spectrum is uncorrected for monochromator and detector sensitivity. The slightly low amplitude of the curve at 3.6 microM [Ca^2+ ] is probably due to a small error in resetting the excitation monochromator to 490 nm.
FIG. 6. The product of fluorescence quantum efficiency and extinction coefficient vs. free [Ca^2+ ] (note log axes for both) for quin-2, fura-2, indo-1, rhod-2, and fluo-3. All data are for room temperature, 0.1 M KCl, no added Mg^2+. […] The curve for fluo-3 used the data of Table I with extinction coefficients of 7.5×10^4 to 8.35×10^4 at 506 nm; the curve for rhod-2 assumed a Ca^2+ -independent extinction coefficient of 1×10^5 M^-1 cm^-1.
Examples of the synthetic routes than can be used to produce the new dyes of the present invention are outlined in FIGS. 2 and 3. Full descriptions of the reaction conditions are described below under the section entitled Compound Synthesis. Optical spectra were measured as described by Grynkiewicz, et al. (1985). (See ref. 9.) Quantum efficiencies of fluorescence were obtained (see ref. 10) by comparing the integral of the corrected emission spectrum of the test sample with that of a solution of rhodamine B in ethanol, quantum efficiency assumed to be 0.97 (see ref. 11), or fluorescein in 0.1 M NaOH, quantum efficiency 0.91 (see ref. 10). The concentration of the reference dye was adjusted to match the absorbance of the test sample at the wavelength of excitation.
The absorbance and fluorescence properties for the new indicators in the presence and absence of Ca^2+ are shown in Table I. The absorbance spectra were much as one would expect for rhodamine or fluorescein chromophores, though extinction coefficients (not shown) were often low in the dyes as initially isolated. Because fluo-3 appeared to be a very useful indicator compound, extra effort was expended in its purification. Eventually, quite respectable extinction coefficients were obtained, 7.9×10^4 and 8.3×10^4 M^-1 cm^-1 at 503 and 506 nm, respectively for free and Ca^2+ -bound fluo-3. Ca^2+ binding was expected to shift the absorbance maxima to longer wavelengths,since it would prevent the BAPTA amino nitrogen from donating electron density to the 9-position of the xanthene. Electron-withdrawal and donation to the central carbon of triphenylmethane dyes are known to shift absorbance peaks to longer and shorter wavelengths, respectively (see ref. 19). […]

In the case of Cc1ccc(N(CC(=O)O)CC(=O)O)c(OCCOc2cc(-c3c4ccc(=[N+](C)C)cc-4oc4cc(N(C)C)ccc34)c(O)cc2N(CC(=O)O)CC(=O)O)c1 [rhod-1, (9-(6-hydroxy-4-bis(carboxymethyl)amino-3-(2-(2-bis(carboxymethyl)amino-5-methylphenoxy)ethoxy)phenyl)-6-dimethylamino-3H-xanthen-3-ylidene)dimethylammonium], the Kd (read-out: Effective dissociation constant Kd for Ca^2+, pH 7.0-7.5, ionic strengths 0.1-0.15) is reported as 2.3 µM, the “Lowering of Ca^2+ affinity by hydroxy group vs unsubstituted rhod-2 and fluo-2” value (vs rhod-2 and fluo-2) is reported as “more than two-fold” and the “Fluorescence maxima, emission, with excess Ca” value ([1]; excess Ca) is reported as 578 nm. For the same compound, the “Fluorescence maxima, excitation, with excess Ca” value ([1]; excess Ca) was 556 nm, the “Fluorescence quantum efficiency, excess Ca” value ([1]; excess Ca) was “.021” and the “Fluorescence ratio, excess vs. zero Ca” value ([1]; excess Ca vs. zero Ca) was 15. For the same compound, the “Fluorescence quantum efficiency, zero Ca” value ([1]; zero Ca) was “.0014”.
